Results deposited as PubChem BioAssay AID720505 (Drosophila RNAi Screening Center, 2013)
In all, the deposit lists about 20,000 reagents; this is an unselected part of those with a known target gene and a result. Over the whole deposit, about 2,100 (10%) got an active call. 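Raw plate signals without normalisation; calls rest on control-based scores that were not deposited; replicate 2 separates called from uncalled poorly.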 Entries without a mark were called inactive. Reagents against one gene are numbered here. No sequences are given here. Not stated in the record: the amount of reagent, the time to read-out.

- Test: 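Fly regulators or components of the CRAC channel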 (primary screen)
- Cell system: Drosophila S2R+ cells
- Knock-down reagent: long dsRNA against Drosophila genes
- Conditions: thapsigargin (2 µM) in calcium-free buffer to empty internal stores, then 2 mM calcium added back
- Read-out: 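Stores emptied by 2 µM thapsigargin without calcium, then 2 mM calcium re-added; fluo-4 fluorescence followed by FLIPR in 384-well plates, per-well averaged endpoint, raw; two screen passes, some wells retested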
- Scale: calcium signal and retest calcium signal: higher = more calcium entry after store depletion
- Active means: 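Knock-downs counted as hits when calcium entry dropped relative to STIM1 positive and Rho1 negative controls present on each plate; roughly 1500 genes called, with reductions of differing size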
- Calls: active = called as lowering calcium entry; inactive = not called

target	dsRNA no.	calcium signal, replicate 1	calcium signal, replicate 2	retest calcium signal, replicate 1	retest calcium signal, replicate 2
CG14115	1	69.2 (active)	75.1		
CG8562	1	53	68.3		
CG3199	1	95.1	81.9		
Adck1	1	41.2 (active)	198		
I-t	1	150	110		
CG33627	1	106	104		
Caf1-105	1	138	128		
PCB	1	229	198		
CG13309	1	104	72.8		
CG1239	1	114	137		
CG7368	1	83.1	102	6913	113
CG7368	2	107	92		
CG7650	1	148	165	116	100
Hex-t1	1	251	147		
wcy	1	116	129		
Mmp1	1	118	223		
ana2	1	149	132		
mino	1	106	187		
CG15824	1	123	186		
Cht2	1	181	97		
tsl	1	156	154		
GPHR	1	121	135		
CG17029	1	98.6	157		
CG43071	1	156	119		
Vps13D	1	66.8	78.1		
Vps13D	2	54.1	72		
Spn88Ea	1	123	181		
RhoGAP5A	1	154	93		
ntc	1	108	101		
mtt	1	82.2	102		
mtt	2	108	114		
mtt	3	113	158		
mtt	4	124	142		

Continued, starting with the last 5 of the part before.
target	dsRNA no.	calcium signal, replicate 1	calcium signal, replicate 2	retest calcium signal, replicate 1	retest calcium signal, replicate 2
ntc	1	108	101		
mtt	1	82.2	102		
mtt	2	108	114		
mtt	3	113	158		
mtt	4	124	142		
trio	1	86.4	88.8		
trio	2	85.8	96.9		
CG9517 (retired record)	1	87.2	122		
CG9517 (retired record)	2	115	151		
CG15450	1	159	89.9	7123	138
CG13760	1	121	117		
CG32437	1	67.9 (active)	137		
CG32437	2	78.5	149		
Npl4	1	116	110		
Npl4	2	107	122		
CG13931	1	75.2	98.6		
Vps20	1	116	150		
CG31051	1	87.4	116		
CG6094	1	87.4	110	103	98.2
CG6094	2	111	177		
Prx6c	1	118	126		
CG2898	1	63.2	98		
CG12590	1	97.1	90.9		
park	1	133	107		
alpha-Man-IIb	1	119	179		
Polr3I	1	94	80.5		
Obp28a	1	40.9 (active)	130		
CG14439	1	171	164		
